From paper PMC4686876 come the findings set out here.

The chains behind the UniProt entries cited, without tags or fusion partners. Residues count along the entry.
UniProt P01579, 24-161: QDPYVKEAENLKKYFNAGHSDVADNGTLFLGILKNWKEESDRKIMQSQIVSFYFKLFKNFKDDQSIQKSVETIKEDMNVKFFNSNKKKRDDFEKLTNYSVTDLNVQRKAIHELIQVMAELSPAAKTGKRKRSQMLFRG

For at least one entry, the source does not settle the construct or the ends of the probe.

The target of the series is interferon-gamma (IFNγ) (human) (UniProt P01579). Kind of series: binding assay. As to conditions: SPR (BIAcore T200, biotinylated aptamer on SA chip), 1x PBS (1 mM KH2PO4, 3 mM Na2HPO4) with 205 mM NaCl final, 0.05% NP-40, pH 7.4, 25 °C; IFNγ 1.25-50 nM; recombinant protein; single-stranded DNA. A general note: Surface plasmon resonance follows binding to a sensor surface in real time, without labels.

For GGGGTTGGTTGTGTTGGGTGTTGTGT [aptamer 26], the Kd stood at 0.016 µM.

A word on the Kd: it is the concentration at which binding is half-saturated.
